Assay results from PubChem BioAssay AID493014 (National Center for Advancing Translational Sciences (NCATS), 2011).
The list shows a part of the results. Further columns of the screen follow, without active or inactive calls. Most of these compounds were active or inconclusive in the main read-out, so they are no random draw. The note in brackets gives the kind of curve behind each potency; many fits are weak.

Assay: qHTS Assay to Find Inhibitors of Chronic Active B-Cell Receptor Signaling
Details: ABC-DLBCL IkBa-CBG/CBR reporter, luminescence ratio (green luciferase fused to IkBa over red control in TMD8 lymphoma cells), 4 h; measured here: CBR red luminescence, cell number
Outline: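 Cell line TMD8 (human ABC DLBCL), stably expressing tet-inducible CBG68-IkBa fusion and CBR; IMDM/0.5% FBS; cpd up to 46 uM; dox induction, 4 h, 37C/5% CO2; dual luminescence; green/red ratio; MG132 control.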
With `COc1cccc(/C=C2\Sc3ccc(C(=O)NCc4cccnc4)cc3N(C)C2=O)c1` the AC50 was 22.4 µM [falling, single point]. With `O=C(CCc1ccccc1)NCc1ccc(F)cc1` the AC50 was 20 µM [rising, partial curve, poor fit]. With `O=C(Nc1ccc(-n2ccc(C(F)(F)F)n2)cc1)c1cccs1` the AC50 was 17.8 µM [falling, single point]. For `CCCOc1ccc(S(=O)(=O)n2cc(Br)c(=O)[nH]c2=O)cc1`, the AC50 was 31.6 µM [falling, single point]. For `Cc1occc1C(=O)Nc1nnc(-c2cccs2)s1`, the AC50 was 35.5 µM [falling, single point]. In the case of `CCS(=O)(=O)Nc1ccc(C2=NN(C(=O)c3ccco3)C(c3cccc(F)c3)C2)cc1` (configuration not stated), the AC50 is reported as 12.6 µM [falling, single point]. In the case of `Cc1ccc(-n2sc3ccccc3c2=O)cc1S(=O)(=O)N1CCCCC1`, the AC50 is reported as 2.59 µM [falling, partial curve]. In the case of `COCCn1c(SCC(=O)c2c[nH]c3ccccc23)nnc1-c1ccncc1`, the AC50 is reported as 1.3 µM [falling, full curve, poor fit]. With `Cn1nc(-c2ccc(Cl)cc2)c2cc(C(=O)NCC3CCCO3)sc21` (configuration not stated) the AC50 was 14.1 µM [falling, single point]. In the case of `Cc1cc(N/C=C/C(=O)c2ccc(Br)cc2)no1`, the AC50 is reported as 0.206 µM [rising, partial curve, poor fit]. In the case of `CC1(C)COC(c2cccn2Cc2ccccc2Cl)=N1`, the AC50 is reported as 35.5 µM [rising, partial curve, poor fit]. With `CN(C(=O)CSc1nc2ccc(Br)cc2c(=O)n1Cc1ccco1)C1CCS(=O)(=O)C1` (configuration not stated) the AC50 was 0.562 µM [falling, full curve, poor fit]. For `CN(C)CCNC(=O)c1cc2c(s1)-c1ccc(Cl)cc1SC2`, the AC50 was 11.2 µM [falling, partial curve]. For `O=C(CCl)NN1C(=O)NC2(CCCCC2)C1=O`, the AC50 was 35.5 µM [rising, single point]. In the case of `CCCCN(c1ccccc1)c1ncnc2c1cnn2-c1ccc(Cl)cc1`, the AC50 is reported as 2 µM [rising, full curve, poor fit]. In the case of `O=c1[nH]c(C2CCN(S(=O)(=O)/C=C/c3ccccc3)CC2)nc2c1nnn2Cc1ccccc1`, the AC50 is reported as 35.5 µM [falling, single point]. With `O=C(NNS(=O)(=O)c1ccccc1[N+](=O)[O-])c1ccc(O)cc1` the AC50 was 7.31 µM [falling, partial curve, poor fit]. In the case of `CC1CCC(NC(=O)C2COc3ccccc3O2)CC1` (configuration not stated), the AC50 is reported as 2.91 µM [rising, full curve, poor fit]. For `O=C1CCCC2=C1C1(CCCC1)N=C(Nc1nc3ccccc3o1)N2`, the AC50 was 7.08 µM [falling, partial curve]. With `CCOc1ccc(CCNC(=O)CSc2cc(=O)n(C)c3ccccc23)cc1OCC` the AC50 was 3.26 µM [rising, partial curve, poor fit]. For `Cc1cc(C(=O)COC(=O)c2cccnc2Cl)c(C)n1CC1CCCO1` (configuration not stated), the AC50 was 31.6 µM [rising, single point]. In the case of `O=C(Nc1ccccc1)C1CC(=O)n2ncnc2N1` (configuration not stated), the AC50 is reported as 2.31 µM [rising, full curve, poor fit]. In the case of `CCOc1ccc(-c2cc(CCCC(=O)Nc3cccc(OC)c3)no2)cc1`, the AC50 is reported as 0.366 µM [falling, full curve, poor fit]. For `S=C1NC2(CCS1)Oc1ccccc1C1CC(c3ccccc3)=NN12` (configuration not stated), the AC50 was 1.12 µM [rising, full curve, poor fit]. With `CNC(=S)N(CCc1c(C)[nH]c2ccc(Cl)cc12)Cc1cccs1` the AC50 was 11.2 µM [falling, partial curve, poor fit]. In the case of `Oc1[nH]c2ccccc2c1/C=N/N1CCCCC1`, the AC50 is reported as 3.98 µM [falling, partial curve, poor fit]. For `COc1cccc(NC(=O)c2cnsn2)c1`, the AC50 was 7.31 µM [falling, partial curve, poor fit]. For `COC(=O)c1ccccc1NC1=C/C(=N\S(=O)(=O)c2ccc(C(=O)O)cc2)c2ccccc2C1=O`, the AC50 was 11.2 µM [falling, partial curve]. For `N#Cc1c(-c2ccc(F)cc2)nc(-c2ccccc2)[nH]c1=O`, the AC50 was 35.5 µM [falling, single point]. With `COCCNC(=O)C(c1ccc(C)o1)N(C(=O)c1snc(C(N)=O)c1N)c1ccc(C)cc1` (configuration not stated) the AC50 was 18.4 µM [rising, single point]. In the case of `Cn1nnnc1SCC(=O)c1ccc2c(c1)OCCO2`, the AC50 is reported as 0.355 µM [rising, full curve, poor fit]. With `CCC1=C/C(=C/N(C)c2ccccc2)C(=O)S1` the AC50 was 14.6 µM [falling, single point]. With `COc1ccc(S(=O)(=O)N(C)Cc2ccc3c(c2)OCCO3)cc1` the AC50 was 0.411 µM [rising, partial curve, poor fit]. For `COc1cc2c(cc1OC)CN(CC(=O)Nc1ccc3c(c1)OC(F)(F)O3)CC2`, the AC50 was 6.51 µM [rising, partial curve, poor fit]. For `Brc1cccc2sc(N3CCN(c4ccccc4)CC3)nc12`, the AC50 was 8.91 µM [rising, partial curve]. In the case of `COCc1c(C(=O)Nc2nc(C)cs2)oc2ccccc12`, the AC50 is reported as 7.94 µM [falling, partial curve, poor fit]. In the case of `c1csc(-c2nc3c4ccccc4c4ccccc4c3[nH]2)c1`, the AC50 is reported as 0.731 µM [falling, full curve, poor fit]. With `C=CCc1cc(/C=C2/NC(=O)NC2=O)cc(OCC)c1O` the AC50 was 4.47 µM [rising, full curve]. With `O=C(Cc1c(F)cccc1Cl)NC1=NCCS1` the AC50 was 31.6 µM [rising, single point]. For `COc1ccccc1N=C1SCC(=O)N1Cc1ccco1`, the AC50 was 35.5 µM [falling, single point]. For `c1ccc(Oc2cc(-n3cccn3)ncn2)cc1`, the AC50 was 2.91 µM [rising, partial curve, poor fit]. In the case of `C=CCN(c1ccccc1)S(=O)(=O)c1cccc(C(=O)OCC(=O)NCCOC)c1`, the AC50 is reported as 3.55 µM [rising, partial curve, poor fit].
